From patent publication US5208220A, “Composition and treatment with biologically active peptides and antibiotics which inhibit DNA gyrase” (priority 1991, dated 1993)
Not every detail of the peptide structures is certain; ends, links or a residue may be inferred. Where no end group is shown, it is not given here.

Experiments:
Format in all cases: cell-based
Settings in all cases: compound alone
[1] = test system: isolates of Staphylococcus aureus; test: MIC in microtiter plates, Mueller-Hinton broth (Example 4)
[2] = test system: isolates of strain MR-PSA (multiply resistant) Pseudomonas aeruginosa; test: MIC in microtiter plates, Mueller-Hinton broth (Examples 2 and 3)
Description: For Examples 2 and 4, microorganisms employed in the assays were grown according to the procedure described in Stutman, et al., Antimicrobial Agents in Chemotherapy, Vol. 34, July 1990.
The final assays were then conducted in microtiter plates containing Mueller-Hinton broth 10^5 organisms were added to each well.
The minimal inhibitory concentrations, (MIC's), according to the procedure of Example 2, were tested against various isolates of strain MR-PSA, of Pseudomonas aeruginosa, except that Peptide 4 replaces Peptide 1.

[3] = test system: P.aeruginosa strain 27853; test: MIC in trypticase soy broth, test wells (Example 1)
Description: (§1) Approximately 1-5×10^5 colony forming units (CFU's) of P.aeruginosa strain 27853 or of P.aeruginosa strain 107 (which is gentamicin - resistant) dispersed in 100 ul of trypticase soy broth (TSB) were added to each of a series of test wells. […] For purposes of this example, Peptide 1 is amide-terminated Magainin II, Peptide 2 is of the following structural formula: […]

[4] = test system: P.aeruginosa strain 107 (which is gentamicin - resistant); test: as above
Description: as §1

| Sequence | MIC ([1]; Table 4, S. aureus isolate 1) [µg/mL] | MIC ([1]; Table 4, S. aureus isolate 2) [µg/mL] | MIC ([1]; Table 4, S. aureus isolate 3) [µg/mL] | MIC ([1]; Table 4, S. aureus isolate 4) [µg/mL] | MIC ([2]; Table 3, MR-PSA isolate 1) [µg/mL] | MIC ([2]; Table 3, MR-PSA isolate 2) [µg/mL] | MIC ([2]; Table 3, MR-PSA isolate 3) [µg/mL] | MIC ([2]; Table 3, MR-PSA isolate 4) [µg/mL] | MIC ([2]; Table 3, MR-PSA isolate 5) [µg/mL] | MIC ([2]; Table 3, MR-PSA isolate 6) [µg/mL] | MIC ([2]; Table 3, MR-PSA isolate 7) [µg/mL] | MIC ([2]; Table 3, MR-PSA isolate 8) [µg/mL] | MIC ([2]; Table 3, MR-PSA isolate 9) [µg/mL] | MIC ([2]; Table 3, MR-PSA isolate 10) [µg/mL] | MIC ([2]; Table 3, MR-PSA isolate 11) [µg/mL] | MIC ([2]; Table 3, MR-PSA isolate 12) [µg/mL] | MIC [3] [µg/mL] | MIC [4] [µg/mL] |
| --- | --- | --- | --- | --- | --- | --- | --- | --- | --- | --- | --- | --- | --- | --- | --- | --- | --- | --- |
| GIGKFLKSAKKFGKAFVKIMNS [Peptide 4] | 32 | 16 | 32 | 64 | 32 | 4 | 8 | 8 | 8 | 32 | 16 | 16 | 32 | 8 | 64 | 32 |  |  |
| KIAGKIAKIAGKIAKIAGKIA [Peptide 2, [KIAGKIA]3] |  |  |  |  |  |  |  |  |  |  |  |  |  |  |  |  | 32 | 32 |
| KLASKAGKIAGKIAKVALKAL [Peptide 3] |  |  |  |  |  |  |  |  |  |  |  |  |  |  |  |  | 16 | 32 |
